Some of the results follow. Shown are side measurements of this screen, not its main read-out; they come without a call. Most of these compounds were active or inconclusive in the main read-out, so they are no random draw. The note in brackets gives the kind of curve behind each potency; many fits are weak.
Experiment: Cell signaling CRE-BLA (Fsk stim)
Details: CHO CRE-bla reporter (cAMP response element driving beta-lactamase), forskolin EC10, beta-lactamase ratio; measured here: 460 nm blue channel
In short: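 qHTS titration format; CRE-bla CHO reporter; stimulus EC10 NKH 477, a water-soluble forskolin. Read: CCF4 460/530 nm ratio. Potency expressed as AC50 for activators or inhibitors.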

SMILES	AC50
CC[C@@]1(O)C(=O)OCc2c1cc1n(c2=O)Cc2cc3c(CN(C)C)c(O)ccc3nc2-1	2 µM [rising, partial curve]
COC(=O)c1ccccc1NC(=O)c1cccc(NC(=O)c2ccc(Br)o2)c1C	12.6 µM [rising, partial curve]
CCC(Sc1nncn1C)C(=O)Nc1nnc(-c2ccc(Cl)cc2)s1 (configuration not stated)	10 µM [rising, single point]
COc1cccc(-c2cc3nc4c(c(N5CCC6(CC5)OCCO6)n3n2)CCCC4)c1	5.01 µM [rising, single point]
O=C(CSc1nc2ccccc2c2ccccc12)c1ccccc1	5.01 µM [rising, single point]
COc1cc(NC(=O)c2cc3ccccc3o2)c(OC)cc1Cl	10 µM [rising, partial curve]
C=CCc1c(C)nc(SCc2nc3ccccc3c(=O)[nH]2)[nH]c1=O	10 µM [rising, partial curve]
CC(=O)Nc1cc(OC(=O)c2ccco2)cc(OC(=O)c2ccco2)c1	10 µM [falling, partial curve]
CCC(C)NC(=O)COc1ccc(S(=O)(=O)N2CCOCC2)cc1 (configuration not stated)	3.98 µM [falling, single point]
Cc1ccc(C2C3=C(CCCC3=O)Nc3nc(SCC(=O)NCc4ccco4)[nH]c(=O)c32)cc1 (configuration not stated)	0.2 µM [falling, full curve]
Cc1ccccc1CS(=O)(=O)CCC(=O)N1CCN(c2ccc(N3CCOCC3)nn2)CC1	6.31 µM [rising, partial curve, poor fit]
Cc1ccc(-n2ncc3c(NCc4ccco4)ncnc32)c(C)c1	25.1 µM [rising, single point]
Cn1c(C(=O)N2CCN(C(=O)c3ccco3)CC2)cc2c(=O)n(C)c3ccccc3c21	2.51 µM [rising, full curve]
Cc1cc2n(n1)C(c1ccc3c(c1)OCO3)Nc1ccccc1-2 (configuration not stated)	15.8 µM [rising, partial curve]
COc1ccc2nc3cc(Cl)ccc3c(Nc3ccc(O)c(CN4CCN(C)CC4)c3)c2c1	2.51 µM [rising, partial curve]
O=C(CCc1nc2ccccc2c(=O)[nH]1)NC1CCN(Cc2ccccc2)CC1	5.01 µM [falling, single point]
CCOC(=O)c1ccc(NS(=O)(=O)c2cc(-c3nnnn3C(C)C)ccc2OC)cc1	25.1 µM [rising, single point]
COC(=O)c1c(C#N)c(N)nc2c1CCCC2	12.6 µM [rising, partial curve]
Cc1cc(C)n(-c2nc3ccccc3nc2Nc2ccc3[nH]c(=O)[nH]c3c2)n1	12.6 µM [rising, partial curve, poor fit]
c1ccc(CCc2nc(-c3ccncc3)no2)cc1	0.631 µM [falling, partial curve]
Cc1ccc(NCc2nnc(SCC(=O)Nc3ccccc3)n2CC2CCCO2)c(C)c1 (configuration not stated)	25.1 µM [falling, single point]
CC(C(=O)NCCCN1CCOCC1)n1cccc1C(=O)c1ccccc1 (configuration not stated)	0.02 µM [falling, full curve, poor fit]
COc1cccc(Nc2ncc3nc(C)c(=O)n(CCC#N)c3n2)c1	7.94 µM [rising, partial curve]

Gathered by group, the compounds so far containing an NH in an aromatic ring (4)
SMILES	AC50
C=CCc1c(C)nc(SCc2nc3ccccc3c(=O)[nH]2)[nH]c1=O	10 µM [rising, partial curve]
Cc1ccc(C2C3=C(CCCC3=O)Nc3nc(SCC(=O)NCc4ccco4)[nH]c(=O)c32)cc1 (configuration not stated)	0.2 µM [falling, full curve]
O=C(CCc1nc2ccccc2c(=O)[nH]1)NC1CCN(Cc2ccccc2)CC1	5.01 µM [falling, single point]
Cc1cc(C)n(-c2nc3ccccc3nc2Nc2ccc3[nH]c(=O)[nH]c3c2)n1	12.6 µM [rising, partial curve, poor fit]

Carrying on:

SMILES	AC50
COc1ccc(CCNC(=O)c2c[nH]c3ccccc3c2=O)cc1OC	10 µM [rising, partial curve]
Cc1nc(NCCCn2ccnc2)c2ccccc2n1	12.6 µM [falling, single point]
COc1ccccc1N=c1oc2cc(O)ccc2cc1C(=O)NCC1CCCO1 (configuration not stated)	10 µM [rising, partial curve]
COC(=O)C1CCN(C(=O)NC2CCCCC2)CC1	0.0316 µM [falling, full curve, poor fit]
CCOc1ccccc1OCC(=O)O	3.98 µM [falling, single point]
CCS(=O)(=O)NCC(c1cccnc1)N1CCN(c2ccccc2F)CC1 (configuration not stated)	0.316 µM [falling, partial curve]
O=P(O)(O)CCP(=O)(c1ccccc1)c1ccccc1	10 µM [rising, partial curve, poor fit]
COc1cc2c(=O)n(Cc3ccco3)c(=O)n(CC(=O)c3ccc(Br)cc3)c2cc1OC	2.51 µM [rising, single point]
CC1(C(=O)NC2CCCCCCC2)CCC(=O)N1Cc1cccnc1 (configuration not stated)	25.1 µM [rising, single point]
COc1cccc(Nc2ncc3nc(C)c(=O)n(Cc4cccs4)c3n2)c1	10 µM [rising, partial curve]
COc1ccc(OC)c(C2=NOC(C(=O)NCc3ccccn3)C2)c1 (configuration not stated)	0.0398 µM [falling, full curve, poor fit]
COC(=O)C1=C(N)Oc2cc(C)n(Cc3ccncc3)c(=O)c2C1c1cccnc1 (configuration not stated)	3.98 µM [falling, single point]
Cc1cccc(Cn2c(N3CCCCC3C)nc3c2c(=O)[nH]c(=O)n3C)c1 (configuration not stated)	2.51 µM [rising, single point]
COc1ccc(-c2nc3cnc(Nc4ccccc4)nc3n(C[C@H]3CCCO3)c2=O)cc1	2.51 µM [rising, full curve]
CN(C)c1ncnc2ccc(-c3cccc(NS(C)(=O)=O)c3)cc12	6.31 µM [rising, partial curve]
CCC(=O)N1CCN(c2ccccc2NC(=O)COc2ccccc2Cl)CC1	1 µM [rising, full curve, poor fit]
Cc1cnc(CNc2cc(-c3cccnc3)ncn2)cn1	12.6 µM [rising, single point]
COC(=O)c1c(NC(=O)CSc2nnc(-c3cccnc3)n2Cc2ccco2)sc(C)c1C	12.6 µM [rising, partial curve]
Cc1csc(SCC(=O)Nc2ccccn2)n1	15.8 µM [falling, single point]
CCCCCCNC(=O)c1c(N)n(/N=C/c2ccco2)c2nc3ccccc3nc12	15.8 µM [rising, partial curve]
O=C(c1ccco1)N1CCN(S(=O)(=O)c2ccc3c(c2)CCN3C(=O)C2CC2)CC1	12.6 µM [rising, single point]
N#Cc1ccccc1-n1c(N)c(C(=O)N2CCCC2)sc1=S	0.316 µM [falling, partial curve]
COc1ccc(CCCc2nnc(SCC(=O)Nc3cc(C)c(C)cc3Br)o2)cc1	2 µM [rising, partial curve]

SMILES	AC50
COc1ccc(C2=CC(c3c(C)nn(-c4ccccc4)c3Cl)n3nnnc3N2)cc1OC (configuration not stated)	10 µM [rising, partial curve]
CC(C)COc1cc(=O)[nH]c(SCC(C)C)n1	10 µM [rising, partial curve]
O=c1c(-c2ccc(F)cc2)nc2cnc(N3CCNCC3)nc2n1C1CC1	12.6 µM [rising, partial curve]
CCOC(=O)N1CCN(C(=O)CCc2c(C)nc3c(c(C)nn3-c3ccc(C)c(C)c3)c2C)CC1	0.0126 µM [falling, full curve, poor fit]
COc1ccc(N2CCN(CC(=O)Nc3nc4c(s3)CC(C)CC4)CC2)cc1 (configuration not stated)	0.126 µM [falling, single point]
CCCc1nc2oc(C(=O)OCC)c(N)c2c2c1COC(C)(C)C2	1.26 µM [rising, full curve]
CCOC(=O)N1CCC(Nc2c(NCCN3CCN(Cc4ccccc4)CC3)c(=O)c2=O)CC1	31.6 µM [falling, partial curve]
O=C(Nc1ccc2c(c1)OCO2)c1cnn2cccnc12	25.1 µM [rising, single point]
COc1ccc(C2c3c(oc4c(C)cc(C)cc4c3=O)C(=O)N2Cc2cccnc2)cc1OC (configuration not stated)	3.16 µM [rising, single point]
Cc1ccc2c(c1)c(C)c(C)n2CC(O)Cn1nc(C)c(Br)c1C (configuration not stated)	2.51 µM [rising, full curve]
Cc1cc(O)c(C=Nc2cccc(Cl)c2)c(=O)o1	12.6 µM [rising, single point]
COc1ccc2[nH]cc(CCNc3ncnc4ccc(-c5c(C)noc5C)cc34)c2c1	3.16 µM [rising, full curve]
O=C(CN1CCN(CCC(=O)Nc2ccccc2F)CC1)Nc1ccc(Cl)cc1	0.0794 µM [falling, full curve]
Cc1csc2nc(=O)c3ccccc3n12	5.01 µM [falling, single point]
Nn1c(SCc2cn3ccsc3n2)nnc1-c1ccncc1	5.01 µM [falling, single point]
CCCn1c(C)nc2c(NCCOC)nc(C)nc21	12.6 µM [rising, partial curve]
Cc1ccc(-c2nnnn2CS(=O)(=O)c2ccccc2)cc1	0.1 µM [falling, partial curve, poor fit]
COCCNC(=O)C(c1cccs1)N(C(=O)Cn1nnc2ccccc21)c1ccc2c(c1)OCO2 (configuration not stated)	0.316 µM [falling, partial curve]
CCOc1cc(NC(=O)c2ccco2)c(OCC)cc1NC(=O)CCc1ccccc1OC	12.6 µM [rising, partial curve]
CNc1nc2sc3c(c2c(=O)n1C)CC(C)(C)SC3	12.6 µM [rising, single point]
COc1ccc(C(=O)NCc2nc3ccccc3[nH]2)cc1OC	10 µM [rising, single point]

Source: PubChem BioAssay AID662 (National Center for Advancing Translational Sciences (NCATS), 2007)
